Data: the supplement of paper PMC4604168 (melanoma cell lines)
Some of the results follow. Single values are uncertain, as repeats are few or missing.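 The apoptosis fraction was the count of cleaved-PARP antibody-stained nuclei relative to all DNA-stained nuclei, imaged in 1,536-well plates. Screening doses were set so most cells survived, and baseline and induced cleaved-PARP levels vary greatly across cell lines.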

Legend:
Assay in all cases: cleaved PARP positive nuclei fraction relative to DMSO control; melanoma cells; higher = more apoptosis
Details in all cases: library dose: low library concentration; 72 h
MZ2-MEL = test system: MZ2-MEL
MeWo = test system: MeWo
RPMI7951 = test system: RPMI7951
RVH-421 = test system: RVH-421
SkMel28 = test system: SkMel28
SkMel2 = test system: SkMel2
SkMel30 = test system: SkMel30
SkMel5 = test system: SkMel5
UACC257 = test system: UACC257
UACC62 = test system: UACC62
WM115 = test system: WM115
WM1716 = test system: WM1716
WM1745 = test system: WM1745
WM3526 = test system: WM3526
WM3619 = test system: WM3619
WM451Lu = test system: WM451Lu

SMILES	cleaved PARP positive nuclei fraction (MZ2-MEL)	cleaved PARP positive nuclei fraction (MeWo)	cleaved PARP positive nuclei fraction (RPMI7951)	cleaved PARP positive nuclei fraction (RVH-421)	cleaved PARP positive nuclei fraction (SkMel28)	cleaved PARP positive nuclei fraction (SkMel2)	cleaved PARP positive nuclei fraction (SkMel30)	cleaved PARP positive nuclei fraction (SkMel5)	cleaved PARP positive nuclei fraction (UACC257)	cleaved PARP positive nuclei fraction (UACC62)	cleaved PARP positive nuclei fraction (WM115)	cleaved PARP positive nuclei fraction (WM1716)	cleaved PARP positive nuclei fraction (WM1745)	cleaved PARP positive nuclei fraction (WM3526)	cleaved PARP positive nuclei fraction (WM3619)	cleaved PARP positive nuclei fraction (WM451Lu)
Cc1cn(-c2cc(NC(=O)c3ccc(C)c(Nc4nccc(-c5cccnc5)n4)c3)cc(C(F)(F)F)c2)cn1 [nilotinib] + O=C(O)c1ccc(-c2c[nH]c3ncc(-c4ccccc4)cc23)cc1C1CCCC1 [GSK650394] (first compound 0.2 µM, partner dose 0.16 µM)	113%	99.8%	50.5%	55.1%	131%	77.2%	61.7%	67.9%	51.4%	241%	106%	136%	101%	52.7%	83.2%	90.1%
O=C(Nc1cc(C(F)(F)F)cc(C(F)(F)F)c1)c1cc(Cl)ccc1O + Cc1ccc(NC(=O)c2cccc(N(C)C)c2)cc1NC(=O)c1ccc(O)cc1 [ZM336372] (first compound 0.016 µM, partner dose 2 µM)	73.6%	111%	53.9%	182%	121%	73.2%	67.5%	33.1%	88.8%	149%	82.1%	81.6%	113%	160%	105%	78.2%
CCCCCCCCCCCCCCCCCCOP(=O)([O-])OC1CC[N+](C)(C)CC1 [Perifosine] + COc1ccc(COc2ccc(Cc3cnc(N)nc3N)cc2OC)cc1 [GW2580] (first compound 0.4 µM, partner dose 1 µM)	106%	131%	98.4%	86.3%	57.9%	68.5%	301%	67.7%	146%	176%	37.6%	50.7%	176%	70.2%	78.5%	50.1%
N#CC[C@H](C1CCCC1)n1cc(-c2ncnc3[nH]ccc23)cn1 [ruxolitinib] + CN(NC(=O)CC(=O)NN(C)C(=S)c1ccccc1)C(=S)c1ccccc1 [STA4783] (first compound 1 µM, partner dose 0.006 µM)	127%	55.5%	45.8%	95.7%	54.6%	24.4%	68.3%	67.4%	133%	165%	41.1%	100%	152%	44.7%	129%	53.9%
Cc1ccc(Nc2nccc(N(C)c3ccc4c(C)n(C)nc4c3)n2)cc1S(N)(=O)=O [Pazopanib] + COc1cc2c(Oc3ccc4[nH]c(C)cc4c3F)ncnc2cc1OCCCN1CCCC1 [cediranib] (first compound 0.4 µM, partner dose 0.4 µM)	80%	33.2%	95.8%	74.2%	118%	29%	72.9%	71.4%	130%	78.5%	75.8%	204%	94.5%	72.1%	106%	65%
O=C(Nc1cc(C(F)(F)F)cc(C(F)(F)F)c1)c1cc(Cl)ccc1O + C[C@@H]1CCN(C(=O)CC#N)C[C@@H]1N(C)c1ncnc2[nH]ccc12 [CP690550] (first compound 0.016 µM, partner dose 1 µM)	73.6%	107%	99.1%	22.1%	99.4%	92.8%	55.2%	48.5%	98.5%	134%	90.3%	75.7%	97.6%	100%	107%	98.8%
COc1cc([C@@H]2c3cc4c(cc3[C@@H](O[C@@H]3O[C@@H]5CO[C@@H](C)O[C@H]5[C@H](O)[C@H]3O)[C@H]3COC(=O)[C@H]23)OCO4)cc(OC)c1O [etoposide] + O=C(O)c1ccc(-c2c[nH]c3ncc(-c4ccccc4)cc23)cc1C1CCCC1 [GSK650394] (first compound 0.02 µM, partner dose 0.16 µM)	132%	110%	48%	248%	66.9%	79.8%	67.8%	65.7%	84.2%	445%	101%	43.5%	203%	30.5%	97.7%	70.5%
Cc1cc(Nc2cc(N3CCN(C)CC3)nc(Sc3ccc(NC(=O)C4CC4)cc3)n2)n[nH]1 [Tozasertib] + CN(C)S(=O)(=O)c1ccc2c(c1)/C(=C/c1cc3c([nH]1)CCCC3)C(=O)N2 [SU6656] (first compound 0.006 µM, partner dose 0.4 µM)	206%	36.1%	97.7%	26.5%	32.3%	48.4%	217%	168%	93.6%	327%	119%	54.7%	114%	153%	89.6%	118%
N#CC[C@H](C1CCCC1)n1cc(-c2ncnc3[nH]ccc23)cn1 [ruxolitinib] + Oc1cc(-c2nc(-c3ccccc3)[nH]c2-c2ccncc2)ccc1Cl [L779450] (first compound 1 µM, partner dose 0.2 µM)	48.9%	153%	137%	44.5%	83.2%	89.1%	328%	64.1%	87.1%	152%	226%	44.6%	88.9%	78.5%	88%	38.7%
CCCCCCCCCCCCCCCCCCOP(=O)([O-])OC1CC[N+](C)(C)CC1 [Perifosine] + OCCn1cc(-c2cnc3nnn(Cc4ccc5ncccc5c4)c3n2)cn1 [PF04217903] (first compound 0.4 µM, partner dose 1 µM)	345%	119%	227%	123%	99.4%	169%	83.9%	109%	84.5%	54%	23.5%	142%	132%	80.7%	118%	155%
O=C(/C=C/c1cccnc1)NCCCCC1CCN(C(=O)c2ccccc2)CC1 + COc1cc(Nc2ncc(F)c(Nc3ccc4c(n3)NC(=O)C(C)(C)O4)n2)cc(OC)c1OC [Tamatinib] (first compound 0.01 µM, partner dose 0.4 µM)	419%	129%	205%	150%	141%	261%	94.7%	274%	83.5%	172%	446%	205%	118%	61.9%	206%	64.8%
N#CC[C@H](C1CCCC1)n1cc(-c2ncnc3[nH]ccc23)cn1 [ruxolitinib] + COc1cc(N2CCC(N3CCN(C)CC3)CC2)ccc1Nc1ncc(Cl)c(Nc2ccccc2S(=O)(=O)C(C)C)n1 [NVP-TAE684] (first compound 1 µM, partner dose 0.08 µM)	77.5%	115%	141%	262%	108%	78.6%	194%	42.4%	335%	118%	80%	41.9%	100%	79.4%	90.5%	105%
CC[C@]1(O)C[C@H]2CN(CCc3c([nH]c4ccccc34)[C@@](C(=O)OC)(c3cc4c(cc3OC)N(C=O)[C@H]3[C@@](O)(C(=O)OC)[C@H](OC(C)=O)[C@]5(CC)C=CCN6CC[C@]43[C@@H]65)C2)C1 [vincristine] + Cc1ccc(NC(=O)c2cccc(N(C)C)c2)cc1NC(=O)c1ccc(O)cc1 [ZM336372] (first compound 0.0001 µM, partner dose 2 µM)	117%	96.7%	95%	101%	430%	89.2%	114%	112%	1320%	161%	417%	199%	118%	198%	146%	278%
O=C(Nc1cc(C(F)(F)F)cc(C(F)(F)F)c1)c1cc(Cl)ccc1O + O=c1cc(-c2cccc3c2Sc2ccccc2S3)oc(N2CCOCC2)c1 [KU55933] (first compound 0.016 µM, partner dose 1 µM)	128%	90%	76.3%	19%	114%	125%	35.4%	66.2%	36.7%	895%	108%	57.6%	176%	242%	88.1%	102%
O=C(/C=C/c1cccnc1)NCCCCC1CCN(C(=O)c2ccccc2)CC1 + CCc1ccc(CCOc2ccc(CC3SC(=O)NC3=O)cc2)nc1 [pioglitazone] (first compound 0.01 µM, partner dose 2 µM)	614%	230%	45.2%	166%	249%	391%	53.9%	88.7%	102%	134%	154%	104%	97.1%	74.2%	100%	158%
O=c1[nH]nc(Sc2ncc([N+](=O)[O-])s2)n1-c1ccc2c(c1)OCCO2 + Cc1ccc(NC(=O)c2cccc(N(C)C)c2)cc1NC(=O)c1ccc(O)cc1 [ZM336372] (first compound 0.2 µM, partner dose 2 µM)	83.1%	146%	55.8%	107%	18.9%	103%	255%	75.4%	104%	107%	74.9%	81.1%	94.2%	115%	113%	188%
CCCCCCCCCCCCCCCCCCOP(=O)([O-])OC1CC[N+](C)(C)CC1 [Perifosine] + CO[C@@H]1[C@H](N(C)C(=O)c2ccccc2)C[C@H]2O[C@]1(C)n1c3ccccc3c3c4c(c5c6ccccc6n2c5c31)C(=O)NC4 [Midostaurin] (first compound 0.4 µM, partner dose 0.08 µM)	47.6%	113%	130%	49.6%	353%	190%	74.3%	82.4%	36.1%	525%	139%	1070%	91.9%	125%	82.4%	73.3%
N#CC[C@H](C1CCCC1)n1cc(-c2ncnc3[nH]ccc23)cn1 [ruxolitinib] + O=c1cc(-c2cccc3c2Sc2ccccc2S3)oc(N2CCOCC2)c1 [KU55933] (first compound 1 µM, partner dose 1 µM)	235%	192%	63.7%	101%	160%	84.8%	91.5%	159%	72.1%	66.6%	51.5%	93.3%	89.2%	62.8%	90.1%	126%

Whole records, quoted from the list. Order of values: cleaved PARP positive nuclei fraction (MZ2-MEL) | cleaved PARP positive nuclei fraction (MeWo) | cleaved PARP positive nuclei fraction (RPMI7951) | cleaved PARP positive nuclei fraction (RVH-421) | cleaved PARP positive nuclei fraction (SkMel28) | cleaved PARP positive nuclei fraction (SkMel2) | cleaved PARP positive nuclei fraction (SkMel30) | cleaved PARP positive nuclei fraction (SkMel5) | cleaved PARP positive nuclei fraction (UACC257) | cleaved PARP positive nuclei fraction (UACC62) | cleaved PARP positive nuclei fraction (WM115) | cleaved PARP positive nuclei fraction (WM1716) | cleaved PARP positive nuclei fraction (WM1745) | cleaved PARP positive nuclei fraction (WM3526) | cleaved PARP positive nuclei fraction (WM3619) | cleaved PARP positive nuclei fraction (WM451Lu)
CCCCCCCCCCCCCCCCCCOP(=O)([O-])OC1CC[N+](C)(C)CC1 [Perifosine] + OCCn1cc(-c2cnc3nnn(Cc4ccc5ncccc5c4)c3n2)cn1 [PF04217903] (first compound 0.4 µM, partner dose 1 µM) as listed: 345% | 119% | 227% | 123% | 99.4% | 169% | 83.9% | 109% | 84.5% | 54% | 23.5% | 142% | 132% | 80.7% | 118% | 155%
Cc1ccc(Nc2nccc(N(C)c3ccc4c(C)n(C)nc4c3)n2)cc1S(N)(=O)=O [Pazopanib] + COc1cc2c(Oc3ccc4[nH]c(C)cc4c3F)ncnc2cc1OCCCN1CCCC1 [cediranib] (first compound 0.4 µM, partner dose 0.4 µM) as listed: 80% | 33.2% | 95.8% | 74.2% | 118% | 29% | 72.9% | 71.4% | 130% | 78.5% | 75.8% | 204% | 94.5% | 72.1% | 106% | 65%
